This passage reports binding results from PMC12274486, “A glyoxal-specific aldehyde signaling axis in Pseudomonas aeruginosa that influences quorum sensing and infection” (Nature Communications, 2025).

No constants are given. Whether binding was seen depends on the method and setting. Binding can be weak; no strength is given.

The target in this test is ArqI in the yeast two-hybrid screen (Pseudomonas aeruginosa) (UniProt Q9I5L9). In words: two-hybrid; yeast two-hybrid screen with ArqI against a random fragmented library of the PAO1 genome (Hybrigenics Services).

B1: PqsA fragment (residues 164-413), yeast two-hybrid clone (domain or fragment, UniProt Q9I4X3 164-413)
chain: TSGSTGAPKGVMHSLRNTLGFCRAFATELLALQAGDRLYSIPKMFFGYGMGNSLFFPWFSGASALLDDTWPSPERVLENLVAFRPRVLFGVPAIYASLRPQARELLSSVRLAFSAGSPLPRGEFEFWAAHGLEICDGIGATEVGHVFLANRPGQARADSTGLPLPGYECRLVDREGHTIEEAGRQGVLLVRGPGLSPGYWRASEEQQARFAGGWYRTGDLFERDESGAYRHCGREDDLFKVNGRWVVPTQ
On to B1, for which the binding result is “binds”.
